The other results are listed elsewhere or left out. Residues, ends and D or L forms follow the SMILES beside them. *: point of attachment. Cbz = O=C(OCc1ccccc1)*
How the values were obtained:
Assay in all cases: log2 fold change, soluble protein after heating vs DMSO (PISA); higher = thermal stabilisation; K562 cells, 10 uM, 30 min; active = over 0.2 and 3.5 SD of the protein, either way, in both replicates (recomputed)
[1] = compound: C#Cc1cccc(Nc2ncnc3cc(OCCOC)c(OCCOC)cc23)c1 [erlotinib]
Method in brief: (§1)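 K562 cells at 2×10^6 cells/mL were exposed to 10 μM compound for 30 min, then aliquots were heated for 3 min across 48°C-58°C, pooled, and extracted in PBS containing 0.5% NP-40 at 4°C. The supernatant after 21,000xg for 90 min was taken as soluble protein and measured by TMTpro 16plex LC-MS/MS with channel sums equalised. Thermal stability is reported relative to control samples, with values from duplicates. Fold changes are given on a log2 scale.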

The chains behind the UniProt entries cited, without tags or fusion partners. Where a name states a change or a piece, a line headed by the entry shows the natural chain unless it says otherwise.
UniProt Q9Y2Y0: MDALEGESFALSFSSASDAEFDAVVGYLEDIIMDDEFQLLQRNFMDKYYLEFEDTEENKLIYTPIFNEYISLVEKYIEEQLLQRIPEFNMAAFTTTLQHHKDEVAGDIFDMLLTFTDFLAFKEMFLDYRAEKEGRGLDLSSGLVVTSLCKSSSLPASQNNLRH
UniProt Q8IUR7, whole entry, looked up: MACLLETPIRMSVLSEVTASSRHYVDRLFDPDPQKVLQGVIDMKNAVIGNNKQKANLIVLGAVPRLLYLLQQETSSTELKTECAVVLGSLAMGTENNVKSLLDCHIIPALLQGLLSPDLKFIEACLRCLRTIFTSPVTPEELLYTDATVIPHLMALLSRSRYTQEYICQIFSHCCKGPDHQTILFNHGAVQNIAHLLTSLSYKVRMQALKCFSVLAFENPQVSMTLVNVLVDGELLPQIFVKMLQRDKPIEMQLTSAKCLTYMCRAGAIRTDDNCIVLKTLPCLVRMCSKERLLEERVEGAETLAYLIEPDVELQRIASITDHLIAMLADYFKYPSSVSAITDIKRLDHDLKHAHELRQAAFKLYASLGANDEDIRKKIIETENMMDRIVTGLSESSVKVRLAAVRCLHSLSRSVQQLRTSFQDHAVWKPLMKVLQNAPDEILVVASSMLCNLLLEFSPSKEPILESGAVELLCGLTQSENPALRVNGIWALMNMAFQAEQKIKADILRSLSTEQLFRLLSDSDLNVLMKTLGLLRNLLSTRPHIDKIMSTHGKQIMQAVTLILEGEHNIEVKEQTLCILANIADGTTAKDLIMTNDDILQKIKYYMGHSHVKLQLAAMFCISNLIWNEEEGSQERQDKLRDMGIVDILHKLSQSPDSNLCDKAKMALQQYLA
UniProt Q8N6S5: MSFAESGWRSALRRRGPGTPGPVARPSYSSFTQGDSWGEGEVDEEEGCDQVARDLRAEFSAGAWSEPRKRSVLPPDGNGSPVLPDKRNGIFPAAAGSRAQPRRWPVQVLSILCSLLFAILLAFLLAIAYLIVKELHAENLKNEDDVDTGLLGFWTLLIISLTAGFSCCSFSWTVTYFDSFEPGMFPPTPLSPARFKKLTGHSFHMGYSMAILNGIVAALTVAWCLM
UniProt Q96DT6: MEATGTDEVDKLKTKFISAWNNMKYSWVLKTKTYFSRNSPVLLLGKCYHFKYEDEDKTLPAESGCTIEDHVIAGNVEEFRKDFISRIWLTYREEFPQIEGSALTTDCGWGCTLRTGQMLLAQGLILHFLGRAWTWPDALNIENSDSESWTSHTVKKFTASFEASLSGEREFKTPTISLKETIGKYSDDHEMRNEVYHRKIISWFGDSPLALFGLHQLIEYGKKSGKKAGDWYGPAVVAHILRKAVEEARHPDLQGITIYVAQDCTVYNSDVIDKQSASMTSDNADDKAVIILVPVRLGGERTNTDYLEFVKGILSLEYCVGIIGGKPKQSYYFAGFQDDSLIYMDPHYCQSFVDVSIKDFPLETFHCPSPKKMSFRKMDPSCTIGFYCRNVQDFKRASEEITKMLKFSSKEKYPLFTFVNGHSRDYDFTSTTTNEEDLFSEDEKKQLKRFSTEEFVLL
UniProt P18850: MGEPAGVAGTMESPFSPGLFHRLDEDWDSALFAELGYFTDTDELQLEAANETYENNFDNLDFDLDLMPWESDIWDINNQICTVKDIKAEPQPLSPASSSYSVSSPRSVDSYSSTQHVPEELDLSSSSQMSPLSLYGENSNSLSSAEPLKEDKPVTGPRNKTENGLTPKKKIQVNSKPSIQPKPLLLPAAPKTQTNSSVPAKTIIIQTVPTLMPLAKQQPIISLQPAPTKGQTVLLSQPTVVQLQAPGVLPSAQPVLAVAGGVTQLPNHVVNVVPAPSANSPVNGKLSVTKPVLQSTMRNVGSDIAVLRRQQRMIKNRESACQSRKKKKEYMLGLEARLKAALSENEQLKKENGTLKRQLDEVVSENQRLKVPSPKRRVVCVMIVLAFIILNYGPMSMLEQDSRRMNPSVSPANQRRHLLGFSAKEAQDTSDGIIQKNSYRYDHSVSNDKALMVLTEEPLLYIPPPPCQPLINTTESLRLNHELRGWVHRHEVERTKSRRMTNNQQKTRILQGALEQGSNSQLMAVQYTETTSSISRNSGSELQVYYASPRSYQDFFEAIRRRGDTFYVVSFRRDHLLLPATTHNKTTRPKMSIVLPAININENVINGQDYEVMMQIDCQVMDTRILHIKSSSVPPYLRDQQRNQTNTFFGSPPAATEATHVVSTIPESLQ
UniProt P18846: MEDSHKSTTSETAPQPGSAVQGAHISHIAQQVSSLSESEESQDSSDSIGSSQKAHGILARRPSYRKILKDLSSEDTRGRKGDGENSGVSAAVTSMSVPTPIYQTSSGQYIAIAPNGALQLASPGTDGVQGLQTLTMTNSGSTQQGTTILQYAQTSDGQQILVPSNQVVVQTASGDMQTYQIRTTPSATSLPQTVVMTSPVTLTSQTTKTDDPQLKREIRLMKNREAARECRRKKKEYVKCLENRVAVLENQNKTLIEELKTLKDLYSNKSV
UniProt Q8IXJ9: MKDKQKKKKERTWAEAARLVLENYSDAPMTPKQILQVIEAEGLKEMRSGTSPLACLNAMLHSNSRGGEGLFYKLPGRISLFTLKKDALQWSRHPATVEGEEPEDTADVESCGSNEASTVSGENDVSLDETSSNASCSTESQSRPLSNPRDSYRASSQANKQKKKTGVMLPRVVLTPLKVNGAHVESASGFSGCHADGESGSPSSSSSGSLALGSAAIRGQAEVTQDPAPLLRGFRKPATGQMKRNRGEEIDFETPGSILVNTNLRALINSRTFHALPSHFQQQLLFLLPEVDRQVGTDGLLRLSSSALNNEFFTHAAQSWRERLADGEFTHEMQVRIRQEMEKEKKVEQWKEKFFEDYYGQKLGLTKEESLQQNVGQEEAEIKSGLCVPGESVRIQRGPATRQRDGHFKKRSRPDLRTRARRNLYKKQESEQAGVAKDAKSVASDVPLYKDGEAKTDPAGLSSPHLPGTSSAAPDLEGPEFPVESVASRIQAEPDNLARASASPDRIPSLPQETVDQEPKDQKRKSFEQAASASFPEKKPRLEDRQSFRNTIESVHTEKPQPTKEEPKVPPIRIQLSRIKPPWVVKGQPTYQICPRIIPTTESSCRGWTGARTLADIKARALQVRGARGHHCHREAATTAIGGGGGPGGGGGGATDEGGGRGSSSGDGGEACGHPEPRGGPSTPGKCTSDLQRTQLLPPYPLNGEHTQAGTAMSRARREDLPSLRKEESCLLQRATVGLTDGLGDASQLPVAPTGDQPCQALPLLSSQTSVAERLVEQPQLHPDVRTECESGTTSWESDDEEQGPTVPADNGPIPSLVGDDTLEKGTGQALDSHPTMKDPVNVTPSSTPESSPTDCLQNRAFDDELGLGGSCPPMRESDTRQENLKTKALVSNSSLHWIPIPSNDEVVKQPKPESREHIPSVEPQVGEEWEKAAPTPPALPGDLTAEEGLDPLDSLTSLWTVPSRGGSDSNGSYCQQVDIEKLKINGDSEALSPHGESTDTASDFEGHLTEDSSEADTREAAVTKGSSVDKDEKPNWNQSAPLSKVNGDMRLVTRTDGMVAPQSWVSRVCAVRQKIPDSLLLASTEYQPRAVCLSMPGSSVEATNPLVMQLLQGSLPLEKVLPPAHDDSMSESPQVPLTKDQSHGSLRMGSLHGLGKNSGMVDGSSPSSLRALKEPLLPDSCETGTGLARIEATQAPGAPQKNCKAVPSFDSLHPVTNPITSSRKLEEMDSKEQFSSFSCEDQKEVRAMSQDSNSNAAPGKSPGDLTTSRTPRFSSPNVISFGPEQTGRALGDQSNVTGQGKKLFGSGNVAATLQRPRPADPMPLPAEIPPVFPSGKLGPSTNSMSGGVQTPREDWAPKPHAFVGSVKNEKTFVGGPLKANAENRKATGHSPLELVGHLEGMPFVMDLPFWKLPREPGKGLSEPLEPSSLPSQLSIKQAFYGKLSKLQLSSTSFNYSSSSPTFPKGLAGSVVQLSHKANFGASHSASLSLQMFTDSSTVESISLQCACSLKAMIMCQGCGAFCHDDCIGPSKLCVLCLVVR
UniProt Q9NWX5: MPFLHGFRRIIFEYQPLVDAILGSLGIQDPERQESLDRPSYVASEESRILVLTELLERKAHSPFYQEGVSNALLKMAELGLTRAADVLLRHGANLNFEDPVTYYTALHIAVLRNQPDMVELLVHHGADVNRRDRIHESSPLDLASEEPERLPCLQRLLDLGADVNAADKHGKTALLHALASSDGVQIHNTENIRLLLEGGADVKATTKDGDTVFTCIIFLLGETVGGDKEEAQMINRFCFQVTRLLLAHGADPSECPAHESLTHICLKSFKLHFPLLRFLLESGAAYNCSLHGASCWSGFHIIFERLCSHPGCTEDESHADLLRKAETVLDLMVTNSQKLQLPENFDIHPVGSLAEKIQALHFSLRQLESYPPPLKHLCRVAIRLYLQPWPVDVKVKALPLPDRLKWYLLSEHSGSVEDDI
UniProt Q9H0F7: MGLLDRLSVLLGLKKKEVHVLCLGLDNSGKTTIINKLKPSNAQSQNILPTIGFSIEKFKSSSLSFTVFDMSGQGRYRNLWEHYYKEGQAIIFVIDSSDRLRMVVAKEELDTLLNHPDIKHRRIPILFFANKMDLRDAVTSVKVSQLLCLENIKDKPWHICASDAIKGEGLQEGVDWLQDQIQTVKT
UniProt Q2TAZ0: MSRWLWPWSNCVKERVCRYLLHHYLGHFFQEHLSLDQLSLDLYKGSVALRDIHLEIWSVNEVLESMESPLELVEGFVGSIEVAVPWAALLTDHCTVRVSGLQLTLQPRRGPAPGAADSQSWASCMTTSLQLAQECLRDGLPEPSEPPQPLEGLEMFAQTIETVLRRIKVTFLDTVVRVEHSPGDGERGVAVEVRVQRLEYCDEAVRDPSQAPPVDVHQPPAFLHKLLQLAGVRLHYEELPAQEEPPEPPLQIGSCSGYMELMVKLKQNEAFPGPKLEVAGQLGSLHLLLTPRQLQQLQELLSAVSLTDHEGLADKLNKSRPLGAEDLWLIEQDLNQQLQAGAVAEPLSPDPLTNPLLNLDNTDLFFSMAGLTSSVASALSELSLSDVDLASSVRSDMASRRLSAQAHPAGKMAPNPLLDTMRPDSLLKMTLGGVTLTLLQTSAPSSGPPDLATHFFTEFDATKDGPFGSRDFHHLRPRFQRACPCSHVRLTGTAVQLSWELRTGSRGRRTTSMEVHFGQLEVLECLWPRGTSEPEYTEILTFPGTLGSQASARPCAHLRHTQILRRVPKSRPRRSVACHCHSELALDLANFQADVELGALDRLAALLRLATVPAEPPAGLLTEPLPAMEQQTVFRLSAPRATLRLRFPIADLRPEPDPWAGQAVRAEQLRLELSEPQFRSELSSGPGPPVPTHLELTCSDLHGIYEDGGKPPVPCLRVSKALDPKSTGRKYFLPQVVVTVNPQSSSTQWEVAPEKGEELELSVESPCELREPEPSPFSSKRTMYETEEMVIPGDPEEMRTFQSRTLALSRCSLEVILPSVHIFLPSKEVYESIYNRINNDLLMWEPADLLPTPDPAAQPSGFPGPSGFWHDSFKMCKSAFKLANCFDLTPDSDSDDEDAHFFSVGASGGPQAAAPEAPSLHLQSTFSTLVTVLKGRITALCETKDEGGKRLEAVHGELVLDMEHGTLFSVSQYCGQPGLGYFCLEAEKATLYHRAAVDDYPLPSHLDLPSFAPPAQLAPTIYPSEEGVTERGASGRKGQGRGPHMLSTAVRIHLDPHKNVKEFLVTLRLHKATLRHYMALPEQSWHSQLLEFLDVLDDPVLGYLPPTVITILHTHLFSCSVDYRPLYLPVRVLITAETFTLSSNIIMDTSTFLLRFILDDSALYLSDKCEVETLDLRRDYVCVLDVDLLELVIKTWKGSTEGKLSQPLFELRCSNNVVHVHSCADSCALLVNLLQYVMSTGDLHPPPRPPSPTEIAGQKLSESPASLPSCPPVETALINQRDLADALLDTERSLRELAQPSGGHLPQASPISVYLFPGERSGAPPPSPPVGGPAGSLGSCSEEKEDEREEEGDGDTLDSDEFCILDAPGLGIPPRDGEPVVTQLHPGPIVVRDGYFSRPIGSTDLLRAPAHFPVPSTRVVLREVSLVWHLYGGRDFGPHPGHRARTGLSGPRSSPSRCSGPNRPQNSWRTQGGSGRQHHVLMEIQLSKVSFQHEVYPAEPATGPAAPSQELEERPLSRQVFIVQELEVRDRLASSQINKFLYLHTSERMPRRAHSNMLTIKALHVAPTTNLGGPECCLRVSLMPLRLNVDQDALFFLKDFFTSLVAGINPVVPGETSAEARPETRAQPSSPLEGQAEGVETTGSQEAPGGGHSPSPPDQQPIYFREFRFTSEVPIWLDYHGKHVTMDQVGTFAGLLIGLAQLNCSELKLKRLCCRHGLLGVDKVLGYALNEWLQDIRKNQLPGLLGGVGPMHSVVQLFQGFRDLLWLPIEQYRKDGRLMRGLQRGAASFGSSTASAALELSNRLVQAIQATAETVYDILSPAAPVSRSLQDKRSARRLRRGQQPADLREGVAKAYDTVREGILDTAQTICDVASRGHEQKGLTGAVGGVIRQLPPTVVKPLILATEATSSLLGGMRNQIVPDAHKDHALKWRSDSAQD

[2] = compound: C1=CC(=C(C=C1Cl)C2=NC3=NC=CN=C3C(=N2)NC4=CC=NC=C4)F
Method in brief: as §1

[3] = compound: C1=CC(=CC=C1C2=NC3=C(N2)C=C(C=C3)C(=O)N)OC4=CC=C(C=C4)Cl
Method in brief: as §1

[4] = compound: C1=CC2=NC=CN=C2C=C1/C=C/3\C(=O)NC(=O)S3
Method in brief: as §1

[5] = compound: C1COCCN1CCN2C3=CC=CC=C3N=C2NC(=O)C4=CC(=CC=C4)[N+](=O)[O-] [IRAK-1-4 Inhibitor I]
Method in brief: as §1

[6] = compound: C=CC(=O)N1CCC[C@@H](n2nc(-c3ccc(Oc4ccccc4)cc3)c3c(N)ncnc32)C1 [ibrutinib]
Method in brief: as §1

[7] = compound: CC(C)(O)CC(=O)NCCn1ccc2ncnc(Nc3ccc(Oc4cccc(C(F)(F)F)c4)c(Cl)c3)c21
Method in brief: as §1

[8] = compound: CC(C)C1=C2N=C(C=C(N2N=C1)NCC3=CC=CC=C3)NCCCCCCN
Method in brief: as §1

[9] = compound: CC(C)N(C[C@H]1O[C@@H](n2cnc3c(N)ncnc32)[C@H](O)[C@@H]1O)[C@H]1C[C@@H](CCc2nc3cc(C(C)(C)C)ccc3[nH]2)C1 [pinometostat]
Method in brief: as §1

[10] = compound: CC1=C(C(CC(=O)N1)C2=CC=C(C=C2)C(F)(F)F)C(=O)NC3=C(C=C4C(=C3)C=NN4)F
Method in brief: as §1

[11] = compound: C1=CC=C(C=C1)C2=NC(=C(N2)C3=CC=NC=C3)C4=CC(=C(C=C4)Cl)O
Method in brief: as §1

[12] = compound: C1CCN(C1)C(=O)NC2=CC=CC(=C2)NC3=NC=C(C(=N3)NCCC4=CN=CN4)Br
Method in brief: as §1

[13] = compound: C1CN(CCC1(CC2=CC=C(C=C2)Cl)N)C3=NC=NC4=C3C=CN4
Method in brief: as §1

[14] = compound: CC(C)(C)Cn1c(N)nc2ccc(-c3[nH]c(C(C)(C)C)nc3-c3ccc(F)cc3)nc21 [ralimetinib]
Method in brief: as §1

[15] = compound: CC(C)C[C@@H](C=O)NC(=O)[C@H](CC(C)C)NC(=O)[C@H](CC(C)C)NC(=O)OCc1ccccc1
Method in brief: as §1

[16] = compound: CC1=C(C2=C(C=C1)C(=O)C3=CC=CC=C3N2CCCN)C
Method in brief: as §1

[17] = compound: C/C(=N\NC(=O)C1=CC(=CC=C1)S(=O)(=O)N2CCOCC2)/C3=C(C=CC(=C3)Cl)O
Method in brief: as §1

[18] = compound: C1=CC2=C(C=CC(=C2)/C=C\3/C(=O)NC(=NCC4=CC=CS4)S3)N=C1
Method in brief: as §1

[19] = compound: C1=CC=C2C(=C1)C3=NNC4=CC=CC(=C43)C2=O
Method in brief: as §1

[20] = compound: CC(=O)c1cnc2ccc(-c3cc(Cl)c(O)c(Cl)c3)nc2c1N[C@H]1CC[C@H](CN(C)C)CC1
Method in brief: as §1

Target	log2 fold change [1]	log2 fold change [2]	log2 fold change [3]	log2 fold change [4]	log2 fold change [5]	log2 fold change [6]	log2 fold change [7]	log2 fold change [8]	log2 fold change [9]	log2 fold change [10]	log2 fold change [11]	log2 fold change [12]	log2 fold change [13]	log2 fold change [14]	log2 fold change [15]	log2 fold change [16]	log2 fold change [17]	log2 fold change [18]	log2 fold change [19]	log2 fold change [20]
ARSK (UniProt Q6UWY0)	inactive: 0.26	inactive: 0.13	inactive: 0.208	inactive: -0.086	inactive: 0.027	inactive: -0.066	inactive: -0.102	inactive: -0.119	inactive: -0.04	inactive: -0.105										
ARRDC1 (UniProt Q8N5I2)	inactive: -0.079	inactive: -0.075	inactive: 0.038	inactive: -0.05		inactive: 0.062	inactive: 0.102	inactive: -0.07			inactive: 0.042	inactive: -0.03	inactive: -0.066	inactive: 0.076	inactive: 0.094	inactive: 0.045				
ATF7 isoform 6 (UniProt P17544)	inactive: -0.011	inactive: -0.043	inactive: 0.021	inactive: -0.055	inactive: -0.031	inactive: 0.199	inactive: -0.042	inactive: 0.138	inactive: 0.019		inactive: 0.08	inactive: -0.004	inactive: -0.117	inactive: 0.089	inactive: -0.14	inactive: 0.22	inactive: -0.148	inactive: 0.032	inactive: 0.085	inactive: 0.183
ARL2BP (UniProt Q9Y2Y0)	inactive: -0.048	inactive: 0.041	inactive: -0.02	inactive: 0.104	inactive: -0.053	inactive: -0.009	inactive: -0.127	inactive: -0.269	inactive: -0.037		inactive: 0.037	inactive: -0.008	inactive: -0.072	inactive: 0.01	inactive: -0.011	inactive: -0.028	inactive: 0.014	inactive: 0.093	inactive: -0.047	inactive: 0.03
ARMC8 isoform 6 (UniProt Q8IUR7)	inactive: -0.145		inactive: -0.168	inactive: 0.078		inactive: 0.016		inactive: 0.053									inactive: 0.081	inactive: -0.075	inactive: -0.067	inactive: 0.038
ASXL2 (UniProt Q76L83)	inactive: 0.042		inactive: 0.167					inactive: 0.11									inactive: -0.016	inactive: 0.024	inactive: -0.059	inactive: -0.059
ATF3 (UniProt P18847)	inactive: -0.12	inactive: 0	inactive: 0.504	inactive: 0.021		inactive: 0.081	inactive: 0.072	inactive: -0.087		inactive: -0.229	inactive: -0.233	inactive: 0.191	inactive: -0.079	inactive: -0.024	inactive: 0.179	inactive: -0.102	inactive: 0.067	inactive: 0.026	inactive: -0.024	inactive: -0.113
ARL6IP6 (UniProt Q8N6S5)	inactive: 0.064	inactive: -0.102	inactive: 0.034	inactive: 0.001	inactive: 0.12	inactive: 0.056	inactive: 0	inactive: -0.049	inactive: 0.069		inactive: 0.201	inactive: 0.01	inactive: -0.036	active: 0.413	inactive: -0.199	inactive: 0.02	inactive: 0.116	inactive: -0.006	inactive: -0.087	inactive: 0.168
ATP2C1 isoform 3 (UniProt P98194)	inactive: -0.126		inactive: -0.028	inactive: 0.048		inactive: -0.051		inactive: -0.026									inactive: 0.25	inactive: -0.118	inactive: -0.223	inactive: -0.046
ATG4C (UniProt Q96DT6)	inactive: -0.065	inactive: 0.009	inactive: -0.003	inactive: 0.118	inactive: 0.035	inactive: 0.096	inactive: -0.019	inactive: -0.001	inactive: 0.035	inactive: -0.02	inactive: -0.004	inactive: 0.013	inactive: 0.143	inactive: 0.115	inactive: -0.003	inactive: 0.377				
ATF6 (UniProt P18850)											inactive: -0.338			inactive: 0.026	inactive: 0.615					
ATF1 (UniProt P18846)	inactive: -0.058	inactive: 0.129	inactive: -0.054	inactive: 0.023		inactive: -0.02	inactive: -0.07	inactive: 0.081				inactive: -0.117	inactive: -0.024			inactive: -0.127	inactive: 0.244	inactive: -0.221	inactive: 0.039	inactive: -0.02
ARPIN isoform 2 (UniProt Q7Z6K5)	inactive: 0.087		inactive: -0.273	inactive: 0.246	inactive: -0.043	inactive: -0.007		inactive: -0.163	inactive: 0.086	inactive: 0.092	inactive: -0.056	inactive: 0.043	inactive: -0.028	inactive: -0.073	inactive: 0.246	inactive: -0.032	inactive: 0.25	inactive: -0.244	inactive: 0.057	inactive: -0.159
ASXL1 (UniProt Q8IXJ9)	inactive: -0.156	inactive: -0.237	inactive: 0.089	inactive: 0.032		inactive: 0.026	inactive: -0.016	inactive: 0.163				inactive: 0.034	inactive: 0.035			inactive: -0.215				
ATP5F1B (UniProt H0YI37)		inactive: -0.312		inactive: -0.187		inactive: 0.213	inactive: 0.156													
ASB6 (UniProt Q9NWX5)	inactive: -0.024	inactive: -0.263	inactive: -0.067	inactive: -0.084	inactive: 0.106	inactive: -0.108	inactive: -0.274	inactive: -0.055	inactive: -0.031		inactive: 0.101			inactive: 0.343	inactive: 0.069		active: -0.603	inactive: 0.184	inactive: -0.032	inactive: 0.039
ARL6 isoform 2 (UniProt Q9H0F7)											inactive: 0.049			inactive: -0.096	inactive: -0.041					
ATP5F1B (UniProt F8W0P7)		inactive: 0.335		inactive: -0.155	inactive: -0.039	inactive: 0.116	inactive: 0.064		inactive: -0.049	inactive: -0.399	inactive: -0.146	inactive: 0.053	inactive: 0.073	inactive: 0.014	inactive: 0.075	inactive: 0.047	inactive: 0.185	inactive: 0.173	inactive: 0.096	inactive: -0.077
ATG2A (UniProt Q2TAZ0)		inactive: 0.258			inactive: 0.132		inactive: -0.247		inactive: 0.019											

Some of the entries above, set out differently:
Target,log2 fold change [1],log2 fold change [2],log2 fold change [3],log2 fold change [4],log2 fold change [5],log2 fold change [6],log2 fold change [7],log2 fold change [8],log2 fold change [9],log2 fold change [10],log2 fold change [11],log2 fold change [12],log2 fold change [13],log2 fold change [14],log2 fold change [15],log2 fold change [16],log2 fold change [17],log2 fold change [18],log2 fold change [19],log2 fold change [20]
ARMC8 isoform 6 (UniProt Q8IUR7),inactive: -0.145,,inactive: -0.168,inactive: 0.078,,inactive: 0.016,,inactive: 0.053,,,,,,,,,inactive: 0.081,inactive: -0.075,inactive: -0.067,inactive: 0.038
ASXL2 (UniProt Q76L83),inactive: 0.042,,inactive: 0.167,,,,,inactive: 0.11,,,,,,,,,inactive: -0.016,inactive: 0.024,inactive: -0.059,inactive: -0.059
